## Primary screen of a compound library

Data taken from ChEMBL document CHEMBL3988442, “University of Dundee, Small-Polar-MMV Screening Library” (2021).

The filed quantity is “Percent Effect” (%). The record does not define 0% and 100%; most values in the screen are far below 50% and negative numbers occur (in some assays of this library far below -100). Compounds were drawn at random from those tested, without regard to their results. Two or more numbers in one place are separate tests of the same structure; such repeats can differ widely.

Mtb cholesterol medium: 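Growth of Mycobacterium tuberculosis over 4 days (cholesterol / DPPC medium with tyloxapol); the read-out is not stated. Tested at 50 µM. Higher reads as more growth inhibition (inferred: compounds with an IC50 in retests scored well above the rest). Of about 69,000 compounds tested this way, about 370 (0.54%) reached 50% or more in at least one test.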
Mtb glucose medium: 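Phenotypic screen: M. tuberculosis growth, glucose 7H9 medium, 3 days; the read-out is not stated. Compounds at 50 µM. Direction is inferred from retests: higher values go with more growth inhibition. About 69,000 compounds were tested under these conditions; 1.1% (about 760) showed 50% or more at least once.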

Result for CN(c1ccc(Cl)c(C(=O)NCCCN2CCOCC2)c1)S(C)(=O)=O was Mtb cholesterol medium: -28.81%; Mtb glucose medium: -18.82%.
Result for Cc1occc1C(=O)N1CCn2c(COCC3CC3)cnc2C1C (centres unmarked) was Mtb cholesterol medium: -16.58%; Mtb glucose medium: -21.06%.
Result for Cc1csc(NC(=O)CN2CCC(c3ccnn3CCO)CC2)n1 was Mtb cholesterol medium: -4.544%; Mtb glucose medium: 20.34%.
Result for CC(C)c1nc2c(n1C)CCN(CC(=O)Nc1ccnn1C(C)C)C2 was Mtb cholesterol medium: 0.7051%; Mtb glucose medium: 3.955%.
Result for O=C(O)C(F)(F)F.[H][C@@]12CCCO[C@]1([H])[C@H](N1CCCC1=O)CN(Cc1cnn(C)c1)C2 was Mtb cholesterol medium: 19.61%; Mtb glucose medium: -11.07% & -1.351%.
Result for CCN(C)c1ccc(CNS(=O)(=O)CC2CCCO2)cc1F (centres unmarked) was Mtb cholesterol medium: 2.313%; Mtb glucose medium: -9.246%.
Result for CS(=O)(=O)CCSCc1cccc2cccnc12 was Mtb cholesterol medium: 2.889%; Mtb glucose medium: -7.581%.
Result for CCC(C)NC(=O)Nc1cccc(OCC#N)c1 (centres unmarked) was Mtb cholesterol medium: -6.572%; Mtb glucose medium: -14.65%.
Result for O=C1N(CC2CC2)CCCC1(O)CN1CCc2[nH]ncc2C1 (centres unmarked) was Mtb cholesterol medium: -6.191%; Mtb glucose medium: 20.35%.
Result for Cc1cc(C2CCCN2C(=O)c2csc(-c3cnn(C)c3)n2)on1 (centres unmarked) was Mtb cholesterol medium: -24.08%; Mtb glucose medium: 11.19% & -1.363%.
Result for CC(C#N)(NC(=O)c1ccc(C#N)cc1)C1CC1 (centres unmarked) was Mtb cholesterol medium: -8.839%; Mtb glucose medium: -47.84%.
Result for CC1CN(Cc2ccc(-n3cccn3)cc2)CCO1 (centres unmarked) was Mtb cholesterol medium: -24.82%; Mtb glucose medium: -21.61%.
Result for Cc1nnc(CCNC(=O)C2CC(=O)N(C(C)(C)C)C2)s1 (centres unmarked) was Mtb cholesterol medium: -11.31%; Mtb glucose medium: 8.276%.
Result for CN(C)CC1(O)CCCN(C(=O)c2ccccc2-n2cccn2)C1 (centres unmarked) was Mtb cholesterol medium: -3.166%; Mtb glucose medium: -31.01% & 2.257%.
Result for COc1ccc(Cc2ncc3c(n2)CN(C(=O)CO)C3)cc1 was Mtb cholesterol medium: 14.79%; Mtb glucose medium: 34.67%.
Result for Cc1cc(C2CCCN2Cc2ccc(S(=O)(=O)N3CCCC3)o2)on1 (centres unmarked) was Mtb cholesterol medium: -28.21%; Mtb glucose medium: -19.92%.
Result for CC(C)c1nc(C2CCCN(C(=O)Cn3ccccc3=O)C2)no1 (centres unmarked) was Mtb cholesterol medium: 8.5%; Mtb glucose medium: -8.622% & 4.694%.
Result for CCOc1ccc(NC(=O)N(CCN(C)C)C(C)c2ccncc2)cc1 (centres unmarked) was Mtb cholesterol medium: 4.106%; Mtb glucose medium: 17.53%.
Result for O=C(CCN1CCCC1=O)NCc1cccnc1Oc1ccccc1 was Mtb cholesterol medium: 18.44%; Mtb glucose medium: 42.8%.
Result for O=C(NCc1ccccc1F)NC1CCCN(c2ncccn2)C1 (centres unmarked) was Mtb cholesterol medium: -13.01%; Mtb glucose medium: -13.16%.
Result for CC1CCc2sc(C(=O)Nc3cnn(C)c3)cc2C1 (centres unmarked) was Mtb cholesterol medium: 11.19%; Mtb glucose medium: 19.97%.
Result for COc1cc(OC)c2c(=O)oc(CC(O)CC(C)=O)cc2c1 (centres unmarked) was Mtb cholesterol medium: -3.558%; Mtb glucose medium: -9.746% & -46.55%.
Result for CN(Cc1ccccc1)C(=O)CCS(=O)(=O)c1ccc2c(c1)OCCO2 was Mtb cholesterol medium: 9.73%; Mtb glucose medium: -4.175%.
Result for CC(=O)N1CCc2nnc(C3CCCCN3CC3CCCCC3)n2CC1 (centres unmarked) was Mtb cholesterol medium: 5.424%; Mtb glucose medium: 1.816%.
Result for O=C(NC1CC1)C1CCc2nnc(-c3cccc(C(F)(F)F)c3)n21 (centres unmarked) was Mtb cholesterol medium: -7.058%; Mtb glucose medium: 2.919%.
Result for [H][C@@]12CN(C(=O)c3cccc(C)n3)C[C@]1([H])OCCN2C(C)C was Mtb cholesterol medium: 0.05098%; Mtb glucose medium: -7.628%.
Result for O=C(c1cccc(=O)[nH]1)N(Cc1ccsc1)CC1CCCO1 (centres unmarked) was Mtb cholesterol medium: -17.18%; Mtb glucose medium: -29.54%.
Result for [H][C@]12CC[C@]([H])(CN(CC(=O)N(C)C)C1)N(C(=O)CCCn1cncn1)C2 was Mtb cholesterol medium: -6.867%; Mtb glucose medium: 1.607% & 18.5%.
Result for CN(CCOCC(F)(F)F)CC1CCN(CCO)CC1 was Mtb cholesterol medium: 12.65%; Mtb glucose medium: -10.01% & 3.027%.
Result for CC(=O)c1ccc(CN2C[C@@H](CN3CCC(O)CC3)[C@@H](CO)C2)cc1 was Mtb cholesterol medium: 6.772%; Mtb glucose medium: 1.773%.
Result for [H][C@@]12COC[C@]1(CNS(C)(=O)=O)CN(C(=O)C1CC=CC1)C2 was Mtb cholesterol medium: 16.67%; Mtb glucose medium: 15.63%.
Result for COC(=O)c1ccc(NCc2csc(C)n2)cc1Cl was Mtb cholesterol medium: -1.266%; Mtb glucose medium: -9.622%.
Result for CCn1ccc(-c2cc(NCCCOc3cccc(C)c3)nc(C)n2)n1 was Mtb cholesterol medium: 74.82%; Mtb glucose medium: 42%.
Result for COC[C@]1(O)CCN(Cc2cnc(N3CCOCC3)nc2)CC1(C)C was Mtb cholesterol medium: 23.49%; Mtb glucose medium: 11.68%.
Result for CC(C)N1CCOC(CC(=O)N2CCCN(Cc3cccs3)CC2)C1 (centres unmarked) was Mtb cholesterol medium: 3.864%; Mtb glucose medium: -30.61% & -0.9975%.
Result for Cl.O=C(CCN1CCCC1)Nc1c2c(cc3c1CCC3)CCC2 was Mtb cholesterol medium: 15.65%; Mtb glucose medium: -1.89% & 0.7971%.
Result for COCC1c2nnn(C)c2CCN1C(=O)COc1ccccc1C (centres unmarked) was Mtb cholesterol medium: -12.34%; Mtb glucose medium: 8.638%.
Result for O=C(NCCc1nccs1)c1n[nH]c2c1CCC2 was Mtb cholesterol medium: 6.024%; Mtb glucose medium: 23.04% & 7.333%.

Some entries from above, unchanged:

* COC[C@]1(O)CCN(Cc2cnc(N3CCOCC3)nc2)CC1(C)C | Mtb cholesterol medium: 23.49%; Mtb glucose medium: 11.68%
* CC1CN(Cc2ccc(-n3cccn3)cc2)CCO1 (centres unmarked) | Mtb cholesterol medium: -24.82%; Mtb glucose medium: -21.61%
* CC(C)c1nc2c(n1C)CCN(CC(=O)Nc1ccnn1C(C)C)C2 | Mtb cholesterol medium: 0.7051%; Mtb glucose medium: 3.955%